Data taken from US9050310B2, “Treatment of ocular lesions” (priority 2004, dated 2015).
For at least one compound, name, drawing or mass did not settle the structure.

Columns and labels:
IL-8 = experiment: UVB-mediated induction of IL-8 in pterygium epithelial cells, sandwich immunoassay of supernatants; type: cell-based, human; conditions: PEC, single dose of UVB, several concentrations: RA 0-0.1 μM, IFN-α 0-15,000 U
Method: (§1) Pterygium-derived epithelial cells (PEC) were seeded at 1×10^6 cells in 100 mm tissue culture dishes (Corning, N.Y.) or at a density of 1.5×10^5 cells per well in 6-well plates (Nunc, Denmark) and grown in the presence of 10% FBS/EMEM. […]
(§2) To determine whether surface receptors were involved in transmitting the UVB signal, some cells were pre-incubated for 1 hr with 0.1 μM PD153035 (Calbiochem), an inhibitor of the tyrosine kinase activity of the EGFR or with 0.1 μM AG1295 (Calbiochem) an inhibitor of the tyrosine kinase activity of the PDGFR. […] UVB light intensity was monitored and calibrated prior to each experiment with the aid of a radiometer IL1400A (International Light, Newburyport, Mass.). […]
(§3) Human IL-6, IL-8, and VEGF (Quantikine™; R&D Systems, Minneapoli, Minn.) were quantified using sandwich immunoassays. […] The optical density of the reaction product was read at the appropriate wavelength using a microplate reader (Spectramax™ Plus, Molecular Devices, Sunnyvale, Calif.).
(§4) Cytokine levels in the culture supernatants were expressed as mean±standard deviation. Difference in cytokine level between control and UV treated cells was assessed by one-way analysis of variance, followed by the Newman-Keuls test for multiple comparisons of treatment groups with the control group. […]

IL-6 = experiment: UVB-mediated induction of IL-6 in pterygium epithelial cells, sandwich immunoassay of supernatants; type: cell-based, human; conditions: PEC, single dose of UVB, several concentrations: RA 0-0.1 μM, IFN-α 0-15,000 U
Method: as §1, §2, §3, §4

VEGF = experiment: UVB-mediated induction of VEGF in pterygium epithelial cells, sandwich immunoassay of supernatants; type: cell-based, human; conditions: PEC, single dose of UVB, several concentrations: RA 0-0.1 μM, IFN-α 0-15,000 U
Method: as §1, §2, §3, §4

[1] = tested on: corneal epithelium of dysplastic appearance with reduced sensation; experiment: Example 3: patient Mr KJ, eyedrop treatment; conditions: six months of retinoic acid eyedrops 0.01% second daily with preservative free serum based eyedrops qid, no interferon

CC1=C(/C=C/C(C)=C/C=C/C(C)=C/C(=O)O)C(C)(C)CCC1 [retinoic acid]
IL-8 protein production (effect in words) (IL-8): dose-dependently inhibited | IL-6 protein production (effect in words) (IL-6): dose-dependently inhibited | UVB-mediated induction of VEGF (effect in words) (VEGF): no significant inhibitory effect | improvement [1]: no improvement
